Assay results reported in US11834423B2, “Small molecule prolactin receptor inhibitors, pharmaceutical compositions and treatment methods using such inhibitors” (University of Cincinnati, priority 2016, dated 2023).
Some entries share one result that the patent states for a list of compounds.

System: Jurkat human lymphocytes
Assay: Cell viability (percent of live cells) in the BrdU uptake experiment
Assay type: cell-based
Details: 1 μM SMI

| Structure (SMILES) | reduction of cell viability |
| --- | --- |
| CCN(CC)c1ccc(/C=N/NC(=O)c2c(Cl)cnn2C)c(O)c1 [SMI-6] | 10-20% |
| Cn1nc(Nc2ccc(Cl)cc2O)c(N)nc1=O [SMI-1] | 10-20% |
